## Primary screen of a compound library

Source: ChEMBL document CHEMBL3988442, “University of Dundee, Small-Polar-MMV Screening Library” (2021).

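Assay of Toxoplasma gondii numbers, read through their beta-galactosidase reporter with a colour substrate. Compounds at 10 µM. Higher reads as fewer parasites (inferred from which compounds were picked for retests). Of about 67,000 compounds tested this way, about 260 (0.38%) reached 50% or more in at least one test.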

Results are given as percent effect.
The controls that fix the scale are not given in the record; negative values are as filed.
Compounds were drawn at random from those tested, without regard to their results.

COc1cccc(N2CCN(CC(O)c3ccc(C)cc3)CC2)c1 (centres undefined) gave 2.866%.
CCc1nc(C2CCCN2CCCS(=O)(=O)c2ccccc2)no1 (centres undefined) gave -8.496%.
CSc1ccc2c(C)cc(N[C@@H](C)CO)nc2c1 gave 3.894%.
Cc1cccc(C2CCCN2S(=O)(=O)N(C)C)n1 (centres undefined) gave 3.533%.
O=C(O)C1(Cc2cc(-c3cccc(F)c3)no2)CCOCC1 gave -0.5766%.
CC(C)c1noc(C(C)N2CCN(Cc3ccccc3C#N)CC2)n1 (centres undefined) gave -6.215%.
CC(=O)N1CCN(c2ccccc2CNc2ccc3[nH]ncc3c2)CC1 gave -2.65%.
CCN1Cc2c(C(=O)NC(C)C(C)C)ncn2-c2ccccc2S1(=O)=O (centres undefined) gave 1.011%.
O=C(O)C(F)(F)F.O=C(O)C(F)(F)F.O=C(O)C(F)(F)F.[H][C@@]12COC[C@H](N3CCN(C)CC3)[C@]1([H])CN(Cc1ccc(OC)cc1)C2 gave 20.19%.
CC(=O)N1CCC(c2nnc3ccc(C(=O)NCCN(C)C)cn23)C1 (centres undefined) gave -10.72%.
O=C(Nc1cc(F)ccc1OCC1CCCO1)N1CCSCC1 (centres undefined) gave 5.271%.
Cc1ccc(CN2CCc3[nH]nc(C(=O)N(C)C)c3C2)s1.O=C(O)C(F)(F)F.O=C(O)C(F)(F)F gave -21.19%.
CC(C)c1noc(CN(C)C(c2ccc(F)cc2)c2cccnc2)n1 (centres undefined) gave 0.641%.
Cc1ccc(NC(=O)Cn2cc(I)cn2)cc1C gave 17.02%.
O=C1C(NCc2nnc3n2CCCC3)CCN1c1ccccc1Cl (centres undefined) gave 26.4%.
COCC(=O)N1CCC(c2cc3n(n2)[C@@H](C(F)(F)F)C[C@@H](C)N3)CC1 gave -2.107%.
CC(C)CN(Cc1ccsc1)C(=O)CCCn1cncn1 gave 9.401%.
[H][C@@]12C[C@H](C(=O)NCC(C)C)[C@@]([H])(CN(C(=O)NCC3CCCCC3)C1)O2 gave -4.908%.
COc1ccc(C(C(=O)O)N2CCN(C3CCCCC3)CC2)cc1OC (centres undefined) gave 3.291%.
CC(NC(=O)NCCn1ccnc1)c1nncn1C (centres undefined) gave 14.75%.
COc1ccc(CC(=O)N2CCC(c3nnc4n3CCC4)CC2)cc1F gave -32.09%.
Cl.O=C(Nc1cccc(CNCc2csc(Br)c2)c1)C1CC1 gave -16.38%.
O=C1Nc2ccccc2C12CCCN(Cc1ccncc1)C2 (centres undefined) gave -12.21%.
O=C(CNC(=O)c1c(F)cccc1Cl)Nc1ccc(F)cn1 gave 22.8%.
CC(=O)NCCCSCCOc1cccc(C#N)c1 gave -72.47%.
[H][C@@]12COC[C@]1([H])[C@@H](OCc1ccccn1)CN2C(=O)c1ccnnc1 gave 7.075%.
CN(Cc1ccoc1)C(=O)CN1C(=O)OC(C)(C)C1=O gave 15.59%.
Cc1nc(N2CCN(C(=O)c3ccccn3)CC2)c2c(n1)c(C)nn2C gave 25.12%.
CN(C(=O)Nc1ccncc1)C1CCN(c2ccccc2)C1=O (centres undefined) gave 6.55%.
Cc1cccc2c1nc1n2[C@@H](CNC(=O)c2ccncc2)COC1 gave 9.776%.

The first 3 entries again:

Result for COc1cccc(N2CCN(CC(O)c3ccc(C)cc3)CC2)c1 (centres undefined) was 2.866%.
Result for CCc1nc(C2CCCN2CCCS(=O)(=O)c2ccccc2)no1 (centres undefined) was -8.496%.
Result for CSc1ccc2c(C)cc(N[C@@H](C)CO)nc2c1 was 3.894%.